Literature values, collected in US7872012B2, “Pyrimidinone compounds and preparation and use thereof” (Zhejiang Hisun Pharma Co., Ltd., priority 2004, dated 2011).
Like-named read-outs stand apart in the source and are kept apart here. At least one compound was matched to its structure with a doubt left. Some of these results come from one statement about several compounds together.

Legend:
[1] = patients taking the statin vs other medicaments for cardiovascular and cerebrovascular disorders or hypertensive diseases
[2] = test system: colon carcinoma; conditions: study of CARE
[3] = test system: colon carcinoma; conditions: study of 4S

Structure (SMILES)	morbidity of Alzheimer disease lower than in those taking other medicaments [1]	cut down of the risk of colon carcinoma [2]	cut down of the risk of colon carcinoma [3]
CC[C@H](C)C(=O)O[C@H]1C[C@@H](C)C=C2C=C[C@H](C)[C@H](CC[C@@H]3C[C@@H](O)CC(=O)O3)[C@H]21 [lovastatin]	60-73%	–	–
CC[C@H](C)C(=O)O[C@H]1C[C@H](O)C=C2C=C[C@H](C)[C@H](CC[C@@H](O)C[C@@H](O)CC(=O)O)[C@H]21 [pravastatin]	60-73%	43%	–
CCC(C)(C)C(=O)O[C@H]1C[C@@H](C)C=C2C=C[C@H](C)[C@H](CC[C@@H]3C[C@@H](O)CC(=O)O3)[C@H]21 [simvastatin]	–	–	19%
